Results are given in words; binding and its absence hold for the method and conditions named. In cells and extracts the contact can be indirect. Here binding means that the protein was enriched with, or labelled near, the bait; the list need not be complete. Where a sequence is shown, tags or fusion partners need not be part of it.
T1: AtMED25-GFP (35S:AtMED25-GFP plants) (Arabidopsis thaliana) (UniProt Q7XYY2)
T1 sequence: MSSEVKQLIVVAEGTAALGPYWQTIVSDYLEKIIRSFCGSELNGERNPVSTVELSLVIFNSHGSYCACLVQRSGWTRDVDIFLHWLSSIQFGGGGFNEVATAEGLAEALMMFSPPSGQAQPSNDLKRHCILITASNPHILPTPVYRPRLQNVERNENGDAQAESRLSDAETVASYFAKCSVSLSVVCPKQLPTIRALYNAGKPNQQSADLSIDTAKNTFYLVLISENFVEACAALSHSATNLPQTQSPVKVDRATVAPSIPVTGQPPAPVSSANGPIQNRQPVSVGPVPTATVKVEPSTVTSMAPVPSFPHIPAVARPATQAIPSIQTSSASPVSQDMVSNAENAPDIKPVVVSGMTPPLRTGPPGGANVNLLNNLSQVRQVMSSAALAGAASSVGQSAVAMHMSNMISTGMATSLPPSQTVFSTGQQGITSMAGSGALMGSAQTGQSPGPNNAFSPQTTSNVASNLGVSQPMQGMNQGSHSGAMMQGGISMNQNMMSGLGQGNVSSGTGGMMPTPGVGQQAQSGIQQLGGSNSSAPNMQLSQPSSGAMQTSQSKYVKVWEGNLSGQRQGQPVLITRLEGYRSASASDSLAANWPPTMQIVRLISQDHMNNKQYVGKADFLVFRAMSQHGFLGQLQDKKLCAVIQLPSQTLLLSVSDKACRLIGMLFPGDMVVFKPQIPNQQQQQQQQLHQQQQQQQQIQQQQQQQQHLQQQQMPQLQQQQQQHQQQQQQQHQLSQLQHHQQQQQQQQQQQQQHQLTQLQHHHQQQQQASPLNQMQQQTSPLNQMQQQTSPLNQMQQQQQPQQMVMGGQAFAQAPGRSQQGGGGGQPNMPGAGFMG

B1: AtMED11 (endogenous) (protein, UniProt Q6ID77 1-115)
chain: MDPQTQNTSLQRLQNVENRVVKVLELAGGVMEELASPSGPKKEFVNSHCREFMQSMKDIQVTLREEIKSACEYRPFEKCDYNARIANEICFQKLEYVLTQLEDLKQTADRYPSSD
B2: J3 (endogenous) (protein, UniProt Q94AW8 1-420)
chain: MFGRGPSKKSDNTKFYEILGVPKSASPEDLKKAYKKAAIKNHPDKGGDPEKFKELAQAYEVLSDPEKREIYDQYGEDALKEGMGGGGGGHDPFDIFSSFFGGGPFGGNTSRQRRQRRGEDVVHPLKVSLEDVYLGTMKKLSLSRNALCSKCNGKGSKSGASLKCGGCQGSGMKVSIRQLGPGMIQQMQHACNECKGTGETINDRDRCPQCKGDKVIPEKKVLEVNVEKGMQHSQKITFEGQADEAPDTVTGDIVFVLQQKEHPKFKRKGEDLFVEHTLSLTEALCGFQFVLTHLDGRSLLIKSNPGEVVKPDSYKAISDEGMPIYQRPFMKGKLYIHFTVEFPDSLSPDQTKALEAVLPKPSTAQLSDMEIDECEETTLHDVNIEDEMRRKAQAQREAYDDDDEDDDHPGGAQRVQCAQQ

Molecular target: T1, AtMED25-GFP (35S:AtMED25-GFP plants) (Arabidopsis thaliana)
Experiment: affinity purification with mass spectrometry

Row | Binder | binding
1 | B1 | binds
2 | B2 | binds

Reference: paper doi:10.1101/2024.01.26.577166
